Measurements reported in PubChem BioAssay AID720505 (Drosophila RNAi Screening Center, 2013).
The deposit covers about 20,000 reagents; below is a random part of those with a known target gene and a result. In the full data, about 2,100 (10%) are marked active. 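Raw plate signals without normalisation; calls rest on control-based scores that were not deposited; replicate 2 separates called from uncalled poorly.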 A plus sign joins genes that one reagent is predicted to hit. The record does not give: the amount of reagent, the time to read-out.

- Screen: 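Knock-downs that reduce calcium influx once internal stores are emptied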 (primary screen)
- Cells: Drosophila S2R+ cells
- Reagent: long dsRNA against Drosophila genes
- Treatment: thapsigargin (2 µM) in calcium-free buffer to empty internal stores, then 2 mM calcium added back
- Measurement: 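Fluo-4 signal in 384-well plates read on a FLIPR after thapsigargin (2 µM, calcium-free) store depletion and 2 mM calcium add-back; unnormalised mean endpoint per well; screen run twice, selected wells retested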
- Direction: calcium signal and retest calcium signal: higher = more calcium entry after store depletion
- Rule for the call: 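About 1500 genes called as lowering calcium entry, by varying amounts, judged against per-plate control wells with STIM1 as positive and Rho1 as negative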
- Calls: active = called as lowering calcium entry; inactive = not called

no.	target gene	amplicon	calcium signal, replicate 1	calcium signal, replicate 2	retest calcium signal, replicate 1	retest calcium signal, replicate 2	call
1	CG10089	DRSC09694	99.6	114			inactive
2	CG10089	DRSC09695	102	105			inactive
3	Met (Methoprene-tolerant)	DRSC20284	83.8	106			inactive
4	CG13884	DRSC08354	136	107			inactive
5	CG13407	DRSC14583	231	175			inactive
6	Pif2 (PFTAIRE-interacting factor 2)	DRSC12525	125	158			inactive
7	bero (belly roll)	DRSC03211	177	92.5			inactive
8	CG15170	DRSC02471	98.6	118			inactive
9	ppk (pickpocket)	DRSC03595	93.5	107			inactive
10	Dlc90F (Dynein light chain 90F)	DRSC16649	160	290			inactive
11	CR14033 (pseudo)	DRSC02358	107	180			inactive
12	CG31233	DRSC15888	164	149			inactive
13	CG7352	DRSC16233	150	152			inactive
14	CG31928	DRSC00293	127	196			inactive
15	BRWD3	DRSC15369	169	244			inactive
16	BRWD3	DRSC16032	255	209			inactive
17	U4-U6-60K (U4-U6 small nuclear riboprotein factor 60K)	DRSC10624	124	68.8			inactive
18	CG13168	DRSC06295	135	190			inactive
19	Acadvl (Acyl-CoA dehydrogenase very long chain)	DRSC07022	103	124			inactive
20	Roc1b + Cdc5	DRSC08687	93.9	93.8			inactive
21	CG13101	DRSC02201	107	162			inactive
22	Jabba	DRSC06521	75.1	155			active
23	anchor	DRSC10861	158	124			inactive
24	CG42713	DRSC01050	125	90.5			inactive
25	Spn38F (Serpin 38F)	DRSC03616	156	104			inactive
26	CG34187 (retired record) + Trpm	DRSC05543	99.2	128			inactive
27	CG9123	DRSC20156	53.5	95			active
28	BEAF-32 + CG42254 (retired record)	DRSC05503	68.4	122			inactive
29	CG17780	DRSC15265	218	115			inactive
30	Dhps (Deoxyhypusine synthase)	DRSC10948	93.5	99.6			inactive
31	TyrRS (Tyrosyl-tRNA synthetase)	DRSC10430	101	107			inactive
32	Hmt4-20 (Histone methyltransferase 4-20)	DRSC18482	101	103			inactive
33	CG43737	DRSC19609	111	148			inactive
34	CG43737	DRSC19610	102	161			inactive
35	Tti1 (Telo2 interacting protein 1)	DRSC15163	160	111			inactive
36	bab1 (bric a brac 1)	DRSC08379	76.4	89.8	133	109	inactive
37	bab1 (bric a brac 1)	DRSC08709	64	62.7			active
38	bab1 (bric a brac 1)	DRSC21882	82.6	226			inactive
39	Cpr62Bc (Cuticular protein 62Bc)	DRSC08545	110	127			inactive
40	Acbp3 (Acyl-CoA binding protein 3)	DRSC11022	71.8	66.3			inactive
41	Inx3 (Innexin 3)	DRSC14857	115	152			inactive
42	CG6276	DRSC16007	95.9	144			inactive
43	CG12637	DRSC17845	93.4	101			inactive
44	CG14835	DRSC10205	90.4	53			inactive
45	GNBP1 (Gram-negative bacteria binding protein 1)	DRSC11169	80.2	109			inactive
46	GNBP1 (Gram-negative bacteria binding protein 1)	DRSC21836	99.7	89.8			inactive
47	CG14416	DRSC18639	127	159			inactive
48	CG10730	DRSC02102	76.4	67.4			active
49	CG15615	DRSC06568	116	112			inactive
50	Gr58b (Gustatory receptor 58b)	DRSC04140	160	104			inactive
51	CG32262	DRSC08165	80	129			inactive
52	CG5174	DRSC06920	117	88.9			inactive
53	CG11444	DRSC17784	113	127			inactive
54	CG7453	DRSC20046	159	90.8			inactive
55	Cul6 (Cullin 6)	DRSC09830	61.9	94.6			active
56	jet (jetlag)	DRSC03116	76.2	145			inactive
57	RhoGAP71E (Rho GTPase activating protein at 71E)	DRSC10232	136	95.4			inactive
58	RhoGAP71E (Rho GTPase activating protein at 71E)	DRSC10837	67	113			inactive
59	RhoGAP71E (Rho GTPase activating protein at 71E)	DRSC10838	62.6	144			inactive
60	Pvr (PDGF- and VEGF-receptor related)	DRSC03080	107	174			inactive
61	CG15676	DRSC04267	207	129			inactive
62	Spn88Ea (Serpin 88Ea)	DRSC17061	123	181			inactive
63	CG31140	DRSC14603	119	152			inactive
64	CG31140	DRSC15904	252	118			inactive
65	CG6071	DRSC10579	111	93.3			inactive
66	CG6420	DRSC16035	98.3	158			inactive
67	CG14567	DRSC11728	91.1	175			inactive
68	cmpy (crimpy)	DRSC11701	104	96.5			inactive
69	CG2258	DRSC18222	118	94.7			inactive
70	Girdin	DRSC08292	88.3	113			inactive
71	pyd3	DRSC15459	94.1	115	99.4	98.6	inactive
72	pyd3	DRSC21640	140	129			inactive
73	Cyp28a5 (Cytochrome P450 28a5)	DRSC03297	73.1	135			inactive
74	mthl5 (methuselah-like 5)	DRSC16155	186	98.7			inactive
75	alpha4GT1 (alpha1,4-galactosyltransferase 1)	DRSC00488	104	195			inactive
76	Cortactin	DRSC16612	174	233			inactive
77	babo (baboon)	DRSC07581	92.4	96.2			inactive
78	Pop5 (POP5 ribonuclease P/MRP subunit)	DRSC10074	79.6	132			inactive
79	stv (starvin)	DRSC09796	110	114			inactive
80	stv (starvin)	DRSC10111	52.3	105			active
81	CG11585	DRSC19410	78.8	135			inactive
82	CG12241	DRSC14481	120	99.7			inactive
83	Fign (Fidgetin)	DRSC00592	124	186			inactive
84	Mpv17 (Mitochondrial inner membrane protein MPV17)	DRSC17198	91	144			inactive
85	CG33263	DRSC10108	89.6	78			inactive
86	P58IPK	DRSC16404	188	105			inactive
87	Pmvk (Phosphomevalonate kinase)	DRSC02032	67.5	222			inactive
88	CG4681	DRSC04481	137	180			inactive
89	Ktch (Ketchup)	DRSC15094	151	159			inactive
90	CG11300	DRSC04104	110	254			inactive
91	Wdr59 (WD repeat domain 59)	DRSC02771	111	106			inactive
92	term (terminus)	DRSC21730	152	112			inactive
93	uno (univalents only)	DRSC07244	114	131			inactive
94	obst-B (obstructor-B)	DRSC01987	109	99.2			inactive
95	CG1737	DRSC19771	148	162			inactive
96	dachs	DRSC01026	72.9	138	98.3	73.1	active
97	dachs	DRSC02072	101	246			inactive
98	dachs	DRSC02191	142	158			inactive
99	Sec61gamma (Sec61 gamma subunit)	DRSC19570	60	209			active
100	ND-B14.5B (NADH dehydrogenase (ubiquinone) B14.5 B subunit)	DRSC00346	78.4	118			inactive
101	Dnz1 (DNZDHHC/NEW1 zinc finger protein 11)	DRSC03317	85.3	101			inactive
102	CG30430	DRSC22260	92.7	140			inactive
103	EndoB (Endophilin B)	DRSC07345	134	115			inactive
104	tap (target of Poxn)	DRSC11402	59.8	116			inactive
105	Arl8 (ADP ribosylation factor-like 8)	DRSC16334	91.6	149			inactive
106	ZnT35C (Zinc transporter 35C)	DRSC01959	96.2	157			inactive

Records listed so far whose gene name starts with M or m (3):
target gene	amplicon	calcium signal, replicate 1	calcium signal, replicate 2	retest calcium signal, replicate 1	retest calcium signal, replicate 2	call
Met (Methoprene-tolerant)	DRSC20284	83.8	106			inactive
mthl5 (methuselah-like 5)	DRSC16155	186	98.7			inactive
Mpv17 (Mitochondrial inner membrane protein MPV17)	DRSC17198	91	144			inactive
